In this experiment the target is PDGFRB ECD. The experiment is described as follows: competition ELISA on PDGFRB ECD: unconjugated competitor titrated against SP26P-IRDye800, fluorescence at 800 nm. For orientation: In an ELISA, binding on a coated surface is turned into a signal by an enzyme label.

Results are given in words; binding and its absence hold for the method and conditions named. Binding can be weak; no strength is given.

B1: SP26P (VHH)
VHH: EVQLVESGGGLVQAGGSLRLSCAASGRSFSSSVMGWFRQTPGKEREFVAATRWTAASTHYADSVKGRFTISRDHAENAVFLQMNSLKPEDTAVYYCAAGNYLDTAQYRYNYWGQGTQVTVSS
On to B1, for which the binding result is “binds”.

Source of the values: patent US20220143204A1.
